Test results reported in publication PMC4585807.
Results are given in words; binding and its absence hold for the method and conditions named. For some of these results: Binding seen in cells or lysates may run through a third protein. Some entries that bind do so weakly or less than the wild type. Sequences can lack the tags named with a protein.

T1: BD-VQ29 (Arabidopsis) (UniProt Q9SZG3)
T1 sequence: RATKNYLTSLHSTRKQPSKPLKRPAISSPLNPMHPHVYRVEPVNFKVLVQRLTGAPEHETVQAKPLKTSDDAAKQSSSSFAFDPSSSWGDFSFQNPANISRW

B1: VQ29-cYFP / VQ29-nYFP (protein, UniProt Q9SZG3 1-123)
chain: MEATSQQFMSQSYLNAQETTTRATKNYLTSLHSTRKQPSKPLKRPAISSPLNPMHPHVYRVEPVNFKVLVQRLTGAPEHETVQAKPLKTSDDAAKQSSSSFAFDPSSSWGDFSFQNPANISRW
B2: AD-VQ1 (protein, UniProt Q1G3U8 1-98)
chain: MSAGVRSEPMKVVFINTQYVQTDARSFKTIVQELTGKNAVVADGPYEFSGQGYGGKDSSQRFCGVGKEAERGVETTEFDSFFREMPPVGELYNLWSDH
B3: AD-VQ8 (protein, UniProt Q9CA36 1-152)
chain: MIPTRCNEINGSRPSSLKLAGESHTIKKTSSCKSKPRPHGRASPVIIYAHSPKVIHTRAEDFMALVQRLTGLDEIIRRNTSESSSSVVTEEVNVGDDNTAAPFSQDRTQRQKLTDMPLFTPSSMTLFGSPTQLMYMSPNRTDSFRPLVFKSE
B4: AD-VQ9 (protein, UniProt Q9M9F0 1-311)
chain: MDKSCNSSGDSSAVSASATSSTGNNTTNRDHYLRQLNKLSHKISKPTNSSSSVSVANREIDLPPPPPLQINQGNLHQHQPPVYNINKNDFRDVVQKLTGSPAHERISAPPQQPIHHPKPQQSSRLHRIRPPPLVHVINRPPGLLNDALIPQGSHHMNQNWTGVGFNLRPTAPLSPLPPLPPVHAAAESPVSSYMRYLQNSMFAIDSNRKEFSGLSPLAPLVSPRWYQQQENAPPSQHNSFPPPHPPPPSSAVSQTVPTSIPAPPLFGCSSSPKSPYGLLSPSILLSPSSGQLGFPVSPTTVPLPSPKYKGH
B5: AD-VQ10 (protein, UniProt Q8VYI5 1-108)
chain: MSGRGKVKSEPMKVVFINTQYVETDARSFKTVVQELTGKNAIVAAGPFDSPSAFDGRCYDGGSKIGEDTRQLHGGGGGGGRMGTTTEFDRLFKEMPHMEELYKLWSEY
B6: AD-VQ11 (protein, UniProt Q9M8L3 1-177)
chain: MSHQQPPSYATEPNTMFVQADPSNFRNIVQKLTGAPPDISSSSFSAVSAAHQKLPLTPKKPAFKLHERRQSSKKMELKVNNITNPNDAFSHFHRGFLVSPVSHLDPFWARVSPHSAREEHHAQPDKEEQKAIAEKGFYFLPSPRSGSEPAPELLPLFPLRSPNGTNHRIHEDNHRDS
B7: AD-VQ13 (protein, UniProt O23660 1-204)
chain: MEKSPRYRDKAKNLLPSPSSCTTTPTRYVKDDMYETTFIRTDPSSFKQVVQLLTGIPKNPTHQPDPRFPPFHSIPPIKAVTNKKQSSSFRLSERRNSMKHYLNINPTHSGPPEILTPTILNFPALDLSPDTPLMSDPFYRPGSFSQSPSDSKPSFDDDQERSIKEKGFYLRPSPSTTPRDTEPRLLSLFPMTPIHSPAPSPHDH
B8: AD-VQ17 (protein, UniProt O48522 1-172)
chain: MEIEATTVQKRRSLPTIAMHKQSRTLTKSKPKIRIIHIFAPEIIKTDVANFREIVQNLTGKQDHHHHDLPHQKGLKRNPRSRRSHDHHEVHDMNKSHGFCINSDEEEEGMVSMTWNGNGDESSGGFLNGLGDLDGFIQELGEFPYLPFTIDPAVASSSHLHGNVFAEPHHYA
B9: AD-VQ18 (protein, UniProt O64868 1-188)
chain: MEITQYQSFHEGSSSRVSMNRNSQVISKIKPKIRIIHIFAPEVIKTDVKNFRSLVQSLTGKPAPGEAKTGKKRAKSRITTPQEPVCDDHQPVNRLSGFTGLLANGGNHQVKEEWGSGDQSTSNTNTYFDLEGLIQDVGEDYFSSFPMRSSSSSQVEGFIFNNNNNNNNNNNNNNNNNTNFDTKAHNSS
B10: AD-VQ21 (protein, UniProt Q8LGD5 1-222)
chain: MDPSEYFAGGNPSDQQNQKRQLQICGPRPSPLSVHKDSHKIKKPPKHPAPPPNRDQPPPYIPREPVVIYAVSPKVVHATASEFMNVVQRLTGISSGVFLESGGGGDVSPAARLASTENASPRGGKEPAARDETVEINTAMEEAAEFGGYAPGILSPSPALLPTASTGIFSPMYHQGGMFSPAIPLGLFSPAGFMSPFRSPGFTSLVASPTFADFFSHIWDQD
B11: AD-VQ29 (protein, UniProt Q9SZG3 1-123)
chain: B1 chain
B12: AD-VQ5 (protein, UniProt Q3ED38 1-220)
chain: MYQRPQNDYLRVNKRKSNYDQLNADSNSVPQLAQTQPRVQVYIIDKNDFKSLVQQLTSPQPCDRLPQNIPKHQDIRPEPINWTSSIPPSAMAVQEDPDVSLYMAYLQSLLEESSGSNGDQFEEPFDKYHSHMMAQSQPQDPTQSMPQSNGFEPFPSSWFNGSTQEMHGASSLQSTRVDYEYPLPLTPNFTFSSMTQHEVFGSDLDSIGPDEDLEFSYEIN
B13: AD-VQ15 (protein, UniProt O80683 1-238)
chain: MVTSEGLASVDSWLYRQGFNVDSWLLSDTFSHDNDLLARALHTTVTAPHTLTPSSAFFDSSAVSHPSSTNTLSSTVSGASDPEIIGGGAKRKRNCLLTDGKAAKRRARASKKSQTTFITADPSNFRQMVQQVTGAKYIDDSSSFGIFDPIVKPEPLRFVNKLPCGPSDRSTAVPMLDTSAFLSNHHQENLAVGNAFSGNSSSVGLPSGKPSATADPGGSAVEFDNYPTFPTLESWKVM

These binders were tested against VQ29-cYFP / VQ29-nYFP (Arabidopsis) (UniProt Q9SZG3) (assay: split reporter; BiFC with nYFP and cYFP fusions co-infiltrated by Agrobacterium EHA105 in N. benthamiana leaves; confocal microscopy 48 h after infiltration).
With B1 the binding was “binds”.

Each binder was assayed against T1, BD-VQ29 (Arabidopsis) (assay: two-hybrid; directed test in yeast Y2HGold; bait in pGBKT7 (Gal4 DNA-binding domain), prey in pGADT7; growth on selective media lacking Leu/Trp/His/Ade and containing 10 mM 3-aminotriazole).
For B2, the binding was “binds”. In the case of B3, the binding is reported as “binds”. B4 was tested, and the binding was “binds”. With B5 the binding was “binds”. In the case of B6, the binding is reported as “binds”. With B7 the binding was “binds”. With B8 the binding was “binds”. B9 was tested, and the binding was “binds”. For B10, the binding was “binds”. With B11 the binding was “binds”. For B12, the binding was “binds weakly”. With B13 the binding was “binds weakly”.
